Screening data, single-dose tests

Amino acid sequences for entries named in this document (tags omitted). Residues count along the entry.
UniProt P9WFT3, whole entry: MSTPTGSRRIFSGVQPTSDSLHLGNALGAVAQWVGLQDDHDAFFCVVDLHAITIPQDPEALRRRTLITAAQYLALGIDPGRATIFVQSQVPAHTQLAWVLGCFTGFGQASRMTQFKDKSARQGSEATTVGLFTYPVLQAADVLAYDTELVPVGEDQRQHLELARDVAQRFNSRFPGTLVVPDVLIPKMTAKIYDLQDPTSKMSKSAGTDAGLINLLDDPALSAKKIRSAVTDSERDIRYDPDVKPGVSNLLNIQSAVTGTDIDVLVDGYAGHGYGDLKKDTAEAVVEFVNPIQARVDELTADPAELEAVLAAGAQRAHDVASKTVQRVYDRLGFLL
UniProt P9WNZ1, whole entry: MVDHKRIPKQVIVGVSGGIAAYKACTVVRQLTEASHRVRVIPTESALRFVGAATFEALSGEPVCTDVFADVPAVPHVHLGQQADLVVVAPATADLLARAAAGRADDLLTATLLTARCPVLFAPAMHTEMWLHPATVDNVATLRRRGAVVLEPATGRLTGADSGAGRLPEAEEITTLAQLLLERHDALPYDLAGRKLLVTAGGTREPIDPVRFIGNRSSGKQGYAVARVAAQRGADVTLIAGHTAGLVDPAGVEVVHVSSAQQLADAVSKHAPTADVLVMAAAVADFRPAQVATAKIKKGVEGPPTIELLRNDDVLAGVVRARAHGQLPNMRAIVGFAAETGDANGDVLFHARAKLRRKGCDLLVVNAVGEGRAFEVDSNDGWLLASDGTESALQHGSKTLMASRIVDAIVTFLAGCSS
UniProt A4I591, 1-473: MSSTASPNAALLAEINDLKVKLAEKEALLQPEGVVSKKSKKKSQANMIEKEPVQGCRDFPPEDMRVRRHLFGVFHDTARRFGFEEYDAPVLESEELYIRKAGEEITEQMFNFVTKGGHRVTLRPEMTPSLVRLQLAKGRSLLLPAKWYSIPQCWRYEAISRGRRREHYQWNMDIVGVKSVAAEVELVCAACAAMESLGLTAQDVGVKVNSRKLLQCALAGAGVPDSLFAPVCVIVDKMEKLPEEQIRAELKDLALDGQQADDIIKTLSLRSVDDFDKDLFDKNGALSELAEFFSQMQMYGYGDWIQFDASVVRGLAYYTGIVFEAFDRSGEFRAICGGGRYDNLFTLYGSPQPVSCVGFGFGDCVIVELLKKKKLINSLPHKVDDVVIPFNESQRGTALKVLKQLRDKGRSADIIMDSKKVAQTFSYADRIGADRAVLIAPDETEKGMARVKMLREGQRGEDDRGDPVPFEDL
UniProt I6X8D2, whole entry: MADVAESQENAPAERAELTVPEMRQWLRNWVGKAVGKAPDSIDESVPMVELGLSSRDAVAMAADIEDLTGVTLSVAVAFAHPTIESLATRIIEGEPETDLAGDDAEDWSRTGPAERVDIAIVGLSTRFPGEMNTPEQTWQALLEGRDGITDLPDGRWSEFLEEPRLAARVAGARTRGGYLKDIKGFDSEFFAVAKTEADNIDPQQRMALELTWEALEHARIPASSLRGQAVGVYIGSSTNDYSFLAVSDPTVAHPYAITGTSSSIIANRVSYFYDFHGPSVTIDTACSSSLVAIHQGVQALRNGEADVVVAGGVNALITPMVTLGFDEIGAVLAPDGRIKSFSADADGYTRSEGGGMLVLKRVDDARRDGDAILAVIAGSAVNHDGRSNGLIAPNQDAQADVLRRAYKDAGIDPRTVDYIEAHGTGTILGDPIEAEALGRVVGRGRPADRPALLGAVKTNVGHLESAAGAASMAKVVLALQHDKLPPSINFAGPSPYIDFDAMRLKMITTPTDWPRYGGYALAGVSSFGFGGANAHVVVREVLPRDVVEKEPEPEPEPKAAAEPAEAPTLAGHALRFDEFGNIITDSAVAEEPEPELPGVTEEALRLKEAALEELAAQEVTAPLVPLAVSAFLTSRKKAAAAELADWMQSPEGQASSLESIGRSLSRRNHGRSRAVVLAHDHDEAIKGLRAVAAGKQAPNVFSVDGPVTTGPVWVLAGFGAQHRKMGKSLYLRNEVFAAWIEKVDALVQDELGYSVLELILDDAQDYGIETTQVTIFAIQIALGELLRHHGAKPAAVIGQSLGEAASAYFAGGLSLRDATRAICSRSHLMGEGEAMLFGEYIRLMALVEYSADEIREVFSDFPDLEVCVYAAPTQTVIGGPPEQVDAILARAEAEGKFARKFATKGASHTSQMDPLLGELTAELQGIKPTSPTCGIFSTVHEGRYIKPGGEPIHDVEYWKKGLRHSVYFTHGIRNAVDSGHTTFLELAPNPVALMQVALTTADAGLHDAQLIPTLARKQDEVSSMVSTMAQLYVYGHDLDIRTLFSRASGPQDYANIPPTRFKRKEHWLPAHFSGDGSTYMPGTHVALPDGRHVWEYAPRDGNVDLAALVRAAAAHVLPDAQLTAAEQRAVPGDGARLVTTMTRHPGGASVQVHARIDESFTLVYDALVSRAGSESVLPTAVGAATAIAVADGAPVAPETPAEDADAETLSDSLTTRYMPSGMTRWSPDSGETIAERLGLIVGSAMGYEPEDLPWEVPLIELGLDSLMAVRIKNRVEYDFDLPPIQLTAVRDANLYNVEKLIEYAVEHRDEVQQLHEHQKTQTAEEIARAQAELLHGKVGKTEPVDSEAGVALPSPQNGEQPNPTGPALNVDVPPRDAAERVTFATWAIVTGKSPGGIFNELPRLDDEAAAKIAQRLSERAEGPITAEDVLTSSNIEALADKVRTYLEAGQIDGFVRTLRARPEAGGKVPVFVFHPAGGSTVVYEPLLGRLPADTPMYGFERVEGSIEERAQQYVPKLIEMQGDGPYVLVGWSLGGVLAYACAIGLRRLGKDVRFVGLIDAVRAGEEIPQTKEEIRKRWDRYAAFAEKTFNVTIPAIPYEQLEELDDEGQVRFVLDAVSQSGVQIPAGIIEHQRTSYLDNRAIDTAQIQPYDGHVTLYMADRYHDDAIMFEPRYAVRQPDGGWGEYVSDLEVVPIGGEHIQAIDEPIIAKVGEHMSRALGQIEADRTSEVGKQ

Source: ChEMBL document CHEMBL3988442, “University of Dundee, Small-Polar-MMV Screening Library” (2021).

A: 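Tryptophan-tRNA ligase, Mycobacterium tuberculosis (UniProt P9WFT3). Enzyme assay of tryptophanyl-tRNA synthetase; the read-out is not stated. Tested at 10 µM. Higher most likely means stronger inhibition; the record gives no direction and few retests gave an IC50. Of about 65,000 compounds tested this way, about 64 (0.098%) reached 50% or more in at least one test.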
B: 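Coenzyme A biosynthesis protein CoaBC, Mycobacterium tuberculosis (UniProt P9WNZ1). Enzyme assay of CoaBC with a phosphate dye (Biomol Green) read at 650 nm. Concentration: 30 µM. Higher reads as stronger inhibition, judged from the few compounds that gave an IC50. Most strong results did not repeat in a second test. Of about 67,000 compounds tested this way, about 40 (0.06%) reached 50% or more in at least one test.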
C: 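Enzyme assay of histidyl-tRNA synthetase; the read-out is not stated. Target: Histidine-tRNA ligase, Leishmania infantum (UniProt A4I591). Compounds at 30 µM. Higher reads as stronger inhibition (inferred: compounds with an IC50 in retests scored well above the rest). The assay is labelled LdHisRS but filed under L. infantum. Of about 69,000 compounds tested this way, about 410 (0.6%) reached 50% or more in at least one test.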
D: 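Enzyme assay of the thioesterase domain of polyketide synthase 13; the read-out is not stated. Target: Polyketide synthase Pks13, Mycobacterium tuberculosis (UniProt I6X8D2). Concentration: 30 µM. Higher reads as stronger inhibition (inferred from which compounds were picked for retests). Size under these conditions: about 67,000 compounds, about 300 of them at 50% or above in at least one test.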

The filed quantity is “Percent Effect” (%).
How 0% and 100% were set is not recorded. Most values in the screen are low, and negative values occur.
The compounds are a random part of those screened.
Two or more numbers in one place are separate tests of the same structure; such repeats can differ widely.
A dash means the value is not listed here; it may have been measured.

SMILES,A,B,C,D
CNC(=O)NC(=O)CN1CCN(c2ccc(C(=O)OC)cc2)CC1C (stereo not shown),-4.035,-0.6386,13.39,-2.738
Cc1cc(C)c(NC(=O)Nc2cnn(CC(O)CN(C)C)c2)c(C)c1 (stereo not shown),-2.12,6.796,5.882,-0.9325
COc1ccc(Cl)cc1C(=O)NCCNc1cnccn1,-3.488,32.46 and 12.89,12.5,1.476
CCn1nc(C)c2nnn(CC(=O)Nc3ccc(C)c(C)c3)c(=O)c21,0.3886,-3.695,17.24,-2.648
CC(C)CN1C(=O)C2(CCN(Cc3ccoc3)C2)c2ccccc21 (stereo not shown),0.8482,1.186,23.29,-22.16
Cc1nc2c(c(N3CCC(O)(CN4CCCC4)CC3)n1)CCNCC2,0.315,-0.7673,18.03,3.826
CC[C@H](C)[C@@H](CO)NC(C)Cc1ccc(C)cc1 (stereo partly shown),1.322,1.157,8.163,-13.77
CN(C)C(=O)[C@@H]1CC[C@@H]2[C@@H](CCN2Cc2ccccn2)O1,-1.841,-,10.26,0.7599
Cc1noc(C)c1CN(C)C(=O)Nc1cnn(CC2CCCO2)c1 (stereo not shown),6.692,-8.496,20.41,-13.07
Cn1cc(C[C@H]2[C@@H](O)CCN2C(=O)C2CC=CC2)cn1,-5.402,-1.901,16.5,-3.219
CSc1ccc(CNC(=O)NCC(O)c2cccc(F)c2)cc1 (stereo not shown),3.36,4.596,14.04,-0.3116
Cc1cc(C(N)=O)c(N2C[C@@H](C)[C@@](C)(O)C2)nc1C,4.812,-5.817,12.64,-3.645
Cc1nc(C)n(C2CCCN(C(=O)c3cc(C(N)=O)cs3)C2)n1 (stereo not shown),-2.047,1.828,16.22,-10.11
CC(C)NC(=O)[C@H]1C[C@@H]2[C@@H](C1)OCCN2Cc1cccs1,-3.625,9.032,25,-33.91
c1cc(CCNc2ncnc3c2CCN(Cc2ccoc2)CC3)ccn1,-1.065,0.861,22.58,-
CCOCC1CN(C(=O)Cc2ccccn2)Cc2c1cnn2C (stereo not shown),-2.199,4.821,13,-8.102
Cc1nn(C)cc1-c1ccnc(N(C)Cc2cccs2)n1,0.07097,0.123,4.839,-11.59
CC(C)(C)OC(=O)N1CCC[C@H](NCc2cc[nH]c2)C1,2.886,2.927,5,-29.97
O=C(c1ccco1)N1CCc2ncc(CN3CCOCC3)n2CC1,-0.1564,-4,14,-27.87
CN1CC(=O)N(c2cccc(F)c2)CC12CCN(Cc1cncn1C)C2 (stereo not shown),-5.02,3.579,20.35,-37.01
CC(NC(=O)N(C)Cc1ccsc1)c1nncn1C (stereo not shown),-0.831,5.72,18.18,-21.24
O=C(CCN1CCCCO1)N1CCC(CO)(CCc2ccccc2)CC1,-1.54,-9.198,5.495,-7.237
Cc1ncsc1C(=O)N(C)Cc1cccnc1,0.000006,0,10.19,-22.43
Cc1cccc(CN2CCC3(CC2)NC(=O)C[C@H]3c2cnn(C)c2)n1,-5.231,-8.015,9.722,-14.62
O=C(c1cscn1)N1CCC(O)(Cn2ccc3ccncc32)CC1,-,1.115,8,-13.55
CC(C)(C)c1ncc(C(=O)NCc2cccc(C(=O)N3CCCC3)c2)s1,-1.882,0.4854,9.639,-21.97
Cc1csc(N2CCN(Cc3cscn3)CC2C)n1 (stereo not shown),-3.127,0.6329,-1.205,-28.16
COc1ccc(CN(C(=O)C2CCCOC2)c2ccncc2)cc1 (stereo not shown),-0.5727,-0.1218,5.376,-17.05
CC(O)c1cccc(N2CCC3(CC2)Nc2ccccc2NC3=O)n1 (stereo not shown),4.795,-0.4808,12.5,-13.91
Fc1ccccc1CN1C[C@@H](OCc2ccncc2)[C@H]2OCCC[C@H]21,-0.58,8.182,21.7,2.14
O=C(COc1cccc(F)c1)N1C[C@H](CO)C[C@H](CN2CCCC2)C1,-1.979,-6.526,26.42,-3.37
Cc1ccc(CN(C)Cc2nc3ccc(F)cc3[nH]2)cn1,3.355,6.397,20.21,-0.9202
O=C(Nc1cnccn1)[C@H]1COC[C@H]2CN(c3ncc(F)cn3)C[C@H]21,-0.8721,-,18.8,-23.49
Cn1ccc2c(C(=O)N3CCCC(c4nnc[nH]4)C3)cccc21 (stereo not shown),-9.74,0,3.636,-14.4
CCN1CCCC(O)(CN(C)Cc2ccccc2F)C1 (stereo not shown),-1.223,2.685,14.94,-9.613
NC(=O)C1CCCN1CCCc1ccc(Cl)cc1 (stereo not shown),-4.563,3.509,8.333,0.6929
Cc1n[nH]c(C)c1-c1cc(-c2cc[nH]c2)nc(N)c1C#N,6.149,4.096,31.87,26.38
CC(C)c1cc(C2CCCN2C(=O)c2cn3ccsc3n2)no1 (stereo not shown),2.927,3.676,16.46,-26.78
COCCN1C[C@H]2CN(Cc3cccc(OC)c3)CCN2C1=O,-0.9916,4.519,16.22,-20.04
CN(CC(=O)Nc1nc2c(s1)CCC2)C(=O)c1cccs1,-5.317,-0.3745,14.88,-